# Reference: EP0987275B1, “Molecules that home to a selected organ or tissue in vivo” (LA JOLLA CANCER RESEARCH FOUNDATION, priority 1995, dated 2008)
# At least one peptide structure holds a part that was inferred or is arguable (an end, a ring closure or a residue). Where a SMILES comes first, the peptide text is derived from it. Bridges are numbered along the chain shown (N, C = ends).
# Test system: brain
# Experiment: Specificity of brain homing of individually amplified phage (TU in brain vs kidney)
# Format: in vivo, mice
# Details: individual phage, same input titer
# Description: To determine the specificity of brain homing of the individual motifs identified, phage displaying the predominant motifs were amplified individually, diluted to the same input titer and administered to mice. Following administration, brain and kidney were removed and the number of TU of phage in each organ was determined. […] Specifically, the ratio of selective homing (brain:kidney) was about 8 for CNSRLHLRC (SEQ ID NO: 1) and for CLSSRLDAC (SEQ ID NO: 3), 4 for CENWWGDVC (SEQ ID NO: 2) and 9 for […] (SEQ ID NO: 16).
compound,measurement,value
CC(C)C[C@@H]1NC(=O)[C@H](CCCNC(=N)N)NC(=O)[C@H](CO)NC(=O)[C@H](CO)NC(=O)[C@H](CC(C)C)NC(=O)[C@@H](N)CSSC[C@@H](C(=O)O)NC(=O)[C@H](C)NC(=O)[C@H](CC(=O)O)NC1=O [CLSSRLDAC] (H-CLSSRLDAC-OH; disulfide 1-9),ratio of selective homing (brain:kidney),about 8
